{"source": "PubChem BioAssay AID2417", "about": "(National Center for Advancing Translational Sciences (NCATS), 2010)", "note": "Screen size: about 140,000 compounds; about 4,300 (3.1%) were called active. The inconclusive results got no clear call from the source; some entries with a clear call stand among them for comparison.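 Rule for the calls: active = readout at or below -70, meaning at least 70% loss of cells showing the perinucleolar compartment, a nuclear body marking cancer cells; inconclusive = readout between -30 and a set limit; inactive = the rest.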", "data": [{"test": "High Content Assay for Compounds that inhibit the Assembly of the Perinucleolar Compartment;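 note: plate controls were DMSO wells for no effect and camptothecin positive control wells for full effect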", "conditions": "PC3M PTB-GFP, PNC prevalence imaging, 16 h; at 10 µM; stronger effect = lower value", "how_it_was_run": "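Read-out is percentage of cells bearing a perinucleolar compartment, from automated 20x imaging of fixed, Hoechst-stained PC3M PTB-GFP cells. Cells were seeded 4 h, then exposed 16 h to compound (23 nl of library stock) in duplicate plates.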", "values": [{"smiles": "Cn1nnnc1SCC(=O)N1CCN(C(c2ccccc2)c2ccccc2)CC1", "activity change (PNC), negative = inhibition": "active: -100%"}, {"smiles": "O=C(COc1ccc(Cl)cc1)N(Cc1ccccc1)c1nc(-c2ccccc2)cs1", "activity change (PNC), negative = inhibition": "inactive: -3.41%"}, {"smiles": "C/C(=N\\NC(=O)CSCc1cccc(Br)c1)c1ccc([N+](=O)[O-])cc1", "activity change (PNC), negative = inhibition": "inactive: 50.7%"}, {"smiles": "CCc1ccc(NC(=O)Cc2ccc(OC)cc2)cc1", "activity change (PNC), negative = inhibition": "inconclusive: -32.5%"}, {"smiles": "Cn1c(=O)c2c(nc(NCCc3ccccc3)n2Cc2ccc(F)cc2)n(C)c1=O", "activity change (PNC), negative = inhibition": "inconclusive: -70.5%"}, {"smiles": "COc1ccc(Cl)cc1C(=O)Nc1ccc(S(=O)(=O)N2CCCC2)cc1", "activity change (PNC), negative = inhibition": "inactive: 7.03%"}, {"smiles": "COc1cc2cc(C(N)=O)c(N)nc2cc1OC", "activity change (PNC), negative = inhibition": "inconclusive: -32.8%"}, {"smiles": "CN1CCN(S(=O)(=O)c2ccc(N3CCN(S(=O)(=O)c4cccs4)CC3)nc2)CC1", "activity change (PNC), negative = inhibition": "inconclusive: -32.4%"}, {"smiles": "CC(C)(C)S(=O)(=O)c1ccc(S(=O)(=O)C(C)(C)C)s1", "activity change (PNC), negative = inhibition": "inactive: 110%"}, {"smiles": "Cc1cccc(C2(c3cccc(C)c3)OC(=O)c3ccccc32)c1", "activity change (PNC), negative = inhibition": "inconclusive: -50.2%"}, {"smiles": "CN1CCN(c2cc(=O)n(C3CCCCC3)c(=O)[nH]2)CC1", "activity change (PNC), negative = inhibition": "inconclusive: -52.2%"}, {"smiles": "O=C(NCCCCC(NC(=O)C1CCCCC1)C(=O)O)c1ccccc1", "note": "(stereo not given)", "activity change (PNC), negative = inhibition": "inconclusive: -46.6%"}, {"smiles": "N#C/C(=C\\c1c(N2CCCCCC2)nc2ccccn2c1=O)C(=O)NC1CCS(=O)(=O)C1", "note": "(stereo not given)", "activity change (PNC), negative = inhibition": "inconclusive: -35%"}, {"smiles": "Cc1csc(SCCn2c(Br)nc3c2c(=O)[nH]c(=O)n3C)n1", "activity change (PNC), negative = inhibition": "inconclusive: -41.2%"}, {"smiles": "Cc1cc(Oc2ccc(Cl)cc2)nc(SCC(=O)c2ccccc2)n1", "activity change (PNC), negative = inhibition": "inactive: 16.7%"}, {"smiles": "CCn1cc(/C=N\\NC(=O)Cc2ccc(Cl)cc2)cn1", "activity change (PNC), negative = inhibition": "active: -99.4%"}, {"smiles": "Cc1ccc(S(=O)(=O)c2c(C)nn(-c3ccccc3)c2OC(=O)c2ccc(Br)o2)cc1", "activity change (PNC), negative = inhibition": "inconclusive: -32.7%"}, {"smiles": "CC1=C(C(=O)Nc2cccnc2)C(c2ccncc2)n2nnnc2N1", "note": "(stereo not given)", "activity change (PNC), negative = inhibition": "inactive: -7.99%"}, {"smiles": "Cc1ccc(-c2csc(NC(=O)COc3ccc(N(C)S(=O)(=O)c4ccc(C)cc4)cc3)n2)cc1", "activity change (PNC), negative = inhibition": "inconclusive: -44.3%"}, {"smiles": "Cc1cc(S(=O)(=O)Nc2ccc(F)cc2)c(C)s1", "activity change (PNC), negative = inhibition": "inconclusive: -56.1%"}, {"smiles": "CC(C)c1nnc(SCC(=O)N2CCOCC2)n1C", "activity change (PNC), negative = inhibition": "inconclusive: -44.7%"}, {"smiles": "CC(C)CC(=O)Nc1nnc(-c2ccco2)s1", "activity change (PNC), negative = inhibition": "inconclusive: -30.9%"}, {"smiles": "C=CCN(CC=C)CCOc1ccccc1", "activity change (PNC), negative = inhibition": "inconclusive: -59%"}, {"smiles": "Cc1c(Cl)cnc(NC(=O)COC(=O)c2cccc(S(=O)(=O)N3CCc4ccccc4C3)c2)c1Cl", "activity change (PNC), negative = inhibition": "inconclusive: -33.3%"}, {"smiles": "c1ccc(-c2c[nH]c3[n+]2CCCCC3)cc1", "activity change (PNC), negative = inhibition": "inconclusive: -38.3%"}, {"smiles": "COc1ccc(-n2c(=O)cc(N3CCN(c4ccccc4F)CC3)[nH]c2=O)cc1", "activity change (PNC), negative = inhibition": "inconclusive: -42.9%"}, {"smiles": "CCCCc1ccc(-c2csc(/C(C#N)=C\\c3ccco3)n2)cc1", "activity change (PNC), negative = inhibition": "active: -111%"}, {"smiles": "CCC(=O)NCCc1cc2ccc(C)c(C)c2[nH]c1=O", "activity change (PNC), negative = inhibition": "inconclusive: -38.9%"}, {"smiles": "CN(NC(=O)COc1ccccc1)c1ccccc1", "activity change (PNC), negative = inhibition": "inconclusive: -43.9%"}, {"smiles": "Cc1c(Cl)cccc1NC(=S)/C(=C(\\[O-])c1ccc(Cl)s1)[n+]1ccccc1", "activity change (PNC), negative = inhibition": "inconclusive: -51%"}, {"smiles": "CCN(CC)c1ccc(C=C2C(=O)OC(C)(C(C)(C)C)OC2=O)cc1", "note": "(stereo not given)", "activity change (PNC), negative = inhibition": "inactive: 95.8%"}, {"smiles": "NS(=O)(=O)c1ccc(N=Nc2c(-c3ccccc3)[nH]n(-c3nc(-c4ccccc4)cs3)c2=O)cc1", "activity change (PNC), negative = inhibition": "inconclusive: -73.6%"}, {"smiles": "Cn1ncc(Cl)c(Oc2ccccc2)c1=O", "activity change (PNC), negative = inhibition": "inactive: 81.3%"}, {"smiles": "Cc1ccccc1NC(=O)CNc1ccccc1N1CCCCC1", "activity change (PNC), negative = inhibition": "active: -94.9%"}, {"smiles": "CC1=C(C(=O)NCc2ccccc2)C(c2cc(Br)cc(Br)c2OC(C)C)NC(=O)N1", "note": "(stereo not given)", "activity change (PNC), negative = inhibition": "inconclusive: -46.9%"}, {"smiles": "Cc1cc(C)c(C#N)c(SCC(=O)CC(=O)OC(C)C)n1", "activity change (PNC), negative = inhibition": "inconclusive: -49.6%"}, {"smiles": "O=C(O)CCc1ccc(-c2ccc(F)cc2)n1CC(=O)O", "activity change (PNC), negative = inhibition": "inconclusive: -64%"}, {"smiles": "COc1ccc(N2C(=O)CC(Nc3ccc(N4CCOCC4)cc3)C2=O)c(OC)c1", "note": "(stereo not given)", "activity change (PNC), negative = inhibition": "active: -87.9%"}, {"smiles": "Cc1nc2c(-c3ccc(F)cc3)c(C)nn2c(N2CCOCC2)c1C", "activity change (PNC), negative = inhibition": "inconclusive: -65.9%"}, {"smiles": "CCCC(=O)NC1=C(C#N)C2(CCCC2)Cc2ccccc21", "activity change (PNC), negative = inhibition": "inconclusive: -36.8%"}, {"smiles": "CC1CCCCN1C(=O)CSc1nnc(-c2cccnc2)n1C1CCCCC1", "note": "(stereo not given)", "activity change (PNC), negative = inhibition": "inactive: 35.6%"}, {"smiles": "O=C(Cc1coc2ccc3ccccc3c12)Nc1nnc(C2CC2)s1", "activity change (PNC), negative = inhibition": "active: -100%"}, {"smiles": "CCOC(=O)c1c(NC(=O)C2CCCO2)sc2c1CCC2", "note": "(stereo not given)", "activity change (PNC), negative = inhibition": "inconclusive: -41.3%"}, {"smiles": "O=C(CSc1nnc(-c2c[nH]c3ccccc23)o1)N(Cc1ccccc1)c1ccc(F)cc1", "activity change (PNC), negative = inhibition": "inactive: 18.1%"}, {"smiles": "CCc1nc2sc3c(c2c(=O)n1NC(=O)CCl)CCCC3", "activity change (PNC), negative = inhibition": "inconclusive: -54.8%"}]}]}
